The target in test [1] is endogenous AKR1B10 (human (endogenous in HCT116 and SW1116)) (UniProt O60218). Kind of test: co-IP; endogenous proteins, anti-AKR1B10 antibody, lysates of HCT116 and SW1116 (and gastric cancer) cells; Protein A/G PLUS-Agarose at 4°C overnight, Western blot.
Test [2] addresses endogenous B56α (PPP2R5A), regulatory subunit of PP2A (human (endogenous in HCT116)) (UniProt Q15172). Description: co-IP; endogenous proteins, immunoprecipitation of PPP2R5A from HCT116 shNC or shAKR1B10 lysates; cells also treated with DPI (10 μM for 20 hours) or FeTPPS (10 μM for 3 hours) or reconstituted with AKR1B10 WT, K125L or C299S; Western blot.
Test [3] has as its target recombinant GST-AKR1B10 protein (human) (UniProt O60218). Kind of test: pull-down; 3 μg of GST-AKR1B10 (WT or K125L) on glutathione-Sepharose beads, 3 μg of His-PPP2CA or His-PPP2R1A added overnight at 4°C, three washes with PBS, Western blot; both purified.

Chains of the proteins cited; added tags and fusions are not shown.
UniProt O60218: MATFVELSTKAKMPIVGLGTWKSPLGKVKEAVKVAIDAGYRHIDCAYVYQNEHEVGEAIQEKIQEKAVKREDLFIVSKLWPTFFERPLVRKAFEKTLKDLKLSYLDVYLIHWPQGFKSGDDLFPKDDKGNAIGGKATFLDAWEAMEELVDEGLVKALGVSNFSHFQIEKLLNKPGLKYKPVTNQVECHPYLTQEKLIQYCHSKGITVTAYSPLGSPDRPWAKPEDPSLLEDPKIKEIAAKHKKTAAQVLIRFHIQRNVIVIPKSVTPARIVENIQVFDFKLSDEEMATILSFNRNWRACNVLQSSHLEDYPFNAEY
UniProt Q15172: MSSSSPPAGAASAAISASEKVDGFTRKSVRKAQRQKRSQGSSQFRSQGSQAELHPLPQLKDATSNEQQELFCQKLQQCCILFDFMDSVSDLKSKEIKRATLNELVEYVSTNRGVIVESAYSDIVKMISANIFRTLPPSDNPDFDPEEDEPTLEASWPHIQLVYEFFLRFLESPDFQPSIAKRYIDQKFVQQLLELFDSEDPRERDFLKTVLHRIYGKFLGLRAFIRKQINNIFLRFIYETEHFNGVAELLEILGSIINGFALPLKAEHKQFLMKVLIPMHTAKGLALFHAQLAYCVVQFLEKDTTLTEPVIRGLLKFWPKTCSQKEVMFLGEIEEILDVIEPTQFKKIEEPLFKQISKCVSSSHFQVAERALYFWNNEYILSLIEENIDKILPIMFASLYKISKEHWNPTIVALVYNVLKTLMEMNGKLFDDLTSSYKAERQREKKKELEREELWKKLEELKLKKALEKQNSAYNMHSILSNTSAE
UniProt P67775: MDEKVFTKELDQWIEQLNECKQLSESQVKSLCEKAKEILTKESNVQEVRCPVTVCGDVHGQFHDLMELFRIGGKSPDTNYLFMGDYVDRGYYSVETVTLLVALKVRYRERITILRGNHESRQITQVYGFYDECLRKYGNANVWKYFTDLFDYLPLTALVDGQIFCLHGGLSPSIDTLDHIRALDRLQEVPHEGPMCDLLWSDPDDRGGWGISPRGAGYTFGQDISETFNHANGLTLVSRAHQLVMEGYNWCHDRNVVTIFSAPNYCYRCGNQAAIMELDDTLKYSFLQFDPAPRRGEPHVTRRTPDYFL
UniProt P30153: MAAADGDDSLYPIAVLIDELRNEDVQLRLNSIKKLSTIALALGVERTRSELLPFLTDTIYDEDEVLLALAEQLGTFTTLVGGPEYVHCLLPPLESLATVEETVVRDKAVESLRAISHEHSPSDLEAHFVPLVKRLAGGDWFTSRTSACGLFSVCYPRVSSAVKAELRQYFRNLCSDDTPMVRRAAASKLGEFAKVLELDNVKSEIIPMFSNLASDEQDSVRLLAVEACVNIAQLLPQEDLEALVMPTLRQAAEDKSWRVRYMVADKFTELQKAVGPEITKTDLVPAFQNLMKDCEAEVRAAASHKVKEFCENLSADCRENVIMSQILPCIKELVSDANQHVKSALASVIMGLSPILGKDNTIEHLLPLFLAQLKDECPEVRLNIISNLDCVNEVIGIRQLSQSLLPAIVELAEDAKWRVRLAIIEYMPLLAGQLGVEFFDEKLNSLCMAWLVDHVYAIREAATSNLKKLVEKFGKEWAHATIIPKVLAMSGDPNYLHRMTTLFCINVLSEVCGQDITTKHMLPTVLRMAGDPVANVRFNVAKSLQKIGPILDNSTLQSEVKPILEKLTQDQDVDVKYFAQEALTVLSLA

No constants are given. Whether binding was seen depends on the method and setting. For part of these data: Binding seen in cells or lysates may run through a third protein. Some entries that bind do so weakly or less than the wild type.

As to “endogenous PPP2CA (catalytic subunit of PP2A) (from UniProt P67775 1-309) (enzyme)”, the binding entry in test [1] and in test [2] was “binds” each time.

With “recombinant His-PPP2R1A (PP2A Aα) (from UniProt P30153 1-589)”, the binding result in test [3] is listed as “no binding (tested: 3 μg)”.

(Values after article PMC12372902.)
